# PubChem BioAssay
# Amino acid sequences for entries named in this document (tags omitted).
# UniProt P42858, whole entry, looked up: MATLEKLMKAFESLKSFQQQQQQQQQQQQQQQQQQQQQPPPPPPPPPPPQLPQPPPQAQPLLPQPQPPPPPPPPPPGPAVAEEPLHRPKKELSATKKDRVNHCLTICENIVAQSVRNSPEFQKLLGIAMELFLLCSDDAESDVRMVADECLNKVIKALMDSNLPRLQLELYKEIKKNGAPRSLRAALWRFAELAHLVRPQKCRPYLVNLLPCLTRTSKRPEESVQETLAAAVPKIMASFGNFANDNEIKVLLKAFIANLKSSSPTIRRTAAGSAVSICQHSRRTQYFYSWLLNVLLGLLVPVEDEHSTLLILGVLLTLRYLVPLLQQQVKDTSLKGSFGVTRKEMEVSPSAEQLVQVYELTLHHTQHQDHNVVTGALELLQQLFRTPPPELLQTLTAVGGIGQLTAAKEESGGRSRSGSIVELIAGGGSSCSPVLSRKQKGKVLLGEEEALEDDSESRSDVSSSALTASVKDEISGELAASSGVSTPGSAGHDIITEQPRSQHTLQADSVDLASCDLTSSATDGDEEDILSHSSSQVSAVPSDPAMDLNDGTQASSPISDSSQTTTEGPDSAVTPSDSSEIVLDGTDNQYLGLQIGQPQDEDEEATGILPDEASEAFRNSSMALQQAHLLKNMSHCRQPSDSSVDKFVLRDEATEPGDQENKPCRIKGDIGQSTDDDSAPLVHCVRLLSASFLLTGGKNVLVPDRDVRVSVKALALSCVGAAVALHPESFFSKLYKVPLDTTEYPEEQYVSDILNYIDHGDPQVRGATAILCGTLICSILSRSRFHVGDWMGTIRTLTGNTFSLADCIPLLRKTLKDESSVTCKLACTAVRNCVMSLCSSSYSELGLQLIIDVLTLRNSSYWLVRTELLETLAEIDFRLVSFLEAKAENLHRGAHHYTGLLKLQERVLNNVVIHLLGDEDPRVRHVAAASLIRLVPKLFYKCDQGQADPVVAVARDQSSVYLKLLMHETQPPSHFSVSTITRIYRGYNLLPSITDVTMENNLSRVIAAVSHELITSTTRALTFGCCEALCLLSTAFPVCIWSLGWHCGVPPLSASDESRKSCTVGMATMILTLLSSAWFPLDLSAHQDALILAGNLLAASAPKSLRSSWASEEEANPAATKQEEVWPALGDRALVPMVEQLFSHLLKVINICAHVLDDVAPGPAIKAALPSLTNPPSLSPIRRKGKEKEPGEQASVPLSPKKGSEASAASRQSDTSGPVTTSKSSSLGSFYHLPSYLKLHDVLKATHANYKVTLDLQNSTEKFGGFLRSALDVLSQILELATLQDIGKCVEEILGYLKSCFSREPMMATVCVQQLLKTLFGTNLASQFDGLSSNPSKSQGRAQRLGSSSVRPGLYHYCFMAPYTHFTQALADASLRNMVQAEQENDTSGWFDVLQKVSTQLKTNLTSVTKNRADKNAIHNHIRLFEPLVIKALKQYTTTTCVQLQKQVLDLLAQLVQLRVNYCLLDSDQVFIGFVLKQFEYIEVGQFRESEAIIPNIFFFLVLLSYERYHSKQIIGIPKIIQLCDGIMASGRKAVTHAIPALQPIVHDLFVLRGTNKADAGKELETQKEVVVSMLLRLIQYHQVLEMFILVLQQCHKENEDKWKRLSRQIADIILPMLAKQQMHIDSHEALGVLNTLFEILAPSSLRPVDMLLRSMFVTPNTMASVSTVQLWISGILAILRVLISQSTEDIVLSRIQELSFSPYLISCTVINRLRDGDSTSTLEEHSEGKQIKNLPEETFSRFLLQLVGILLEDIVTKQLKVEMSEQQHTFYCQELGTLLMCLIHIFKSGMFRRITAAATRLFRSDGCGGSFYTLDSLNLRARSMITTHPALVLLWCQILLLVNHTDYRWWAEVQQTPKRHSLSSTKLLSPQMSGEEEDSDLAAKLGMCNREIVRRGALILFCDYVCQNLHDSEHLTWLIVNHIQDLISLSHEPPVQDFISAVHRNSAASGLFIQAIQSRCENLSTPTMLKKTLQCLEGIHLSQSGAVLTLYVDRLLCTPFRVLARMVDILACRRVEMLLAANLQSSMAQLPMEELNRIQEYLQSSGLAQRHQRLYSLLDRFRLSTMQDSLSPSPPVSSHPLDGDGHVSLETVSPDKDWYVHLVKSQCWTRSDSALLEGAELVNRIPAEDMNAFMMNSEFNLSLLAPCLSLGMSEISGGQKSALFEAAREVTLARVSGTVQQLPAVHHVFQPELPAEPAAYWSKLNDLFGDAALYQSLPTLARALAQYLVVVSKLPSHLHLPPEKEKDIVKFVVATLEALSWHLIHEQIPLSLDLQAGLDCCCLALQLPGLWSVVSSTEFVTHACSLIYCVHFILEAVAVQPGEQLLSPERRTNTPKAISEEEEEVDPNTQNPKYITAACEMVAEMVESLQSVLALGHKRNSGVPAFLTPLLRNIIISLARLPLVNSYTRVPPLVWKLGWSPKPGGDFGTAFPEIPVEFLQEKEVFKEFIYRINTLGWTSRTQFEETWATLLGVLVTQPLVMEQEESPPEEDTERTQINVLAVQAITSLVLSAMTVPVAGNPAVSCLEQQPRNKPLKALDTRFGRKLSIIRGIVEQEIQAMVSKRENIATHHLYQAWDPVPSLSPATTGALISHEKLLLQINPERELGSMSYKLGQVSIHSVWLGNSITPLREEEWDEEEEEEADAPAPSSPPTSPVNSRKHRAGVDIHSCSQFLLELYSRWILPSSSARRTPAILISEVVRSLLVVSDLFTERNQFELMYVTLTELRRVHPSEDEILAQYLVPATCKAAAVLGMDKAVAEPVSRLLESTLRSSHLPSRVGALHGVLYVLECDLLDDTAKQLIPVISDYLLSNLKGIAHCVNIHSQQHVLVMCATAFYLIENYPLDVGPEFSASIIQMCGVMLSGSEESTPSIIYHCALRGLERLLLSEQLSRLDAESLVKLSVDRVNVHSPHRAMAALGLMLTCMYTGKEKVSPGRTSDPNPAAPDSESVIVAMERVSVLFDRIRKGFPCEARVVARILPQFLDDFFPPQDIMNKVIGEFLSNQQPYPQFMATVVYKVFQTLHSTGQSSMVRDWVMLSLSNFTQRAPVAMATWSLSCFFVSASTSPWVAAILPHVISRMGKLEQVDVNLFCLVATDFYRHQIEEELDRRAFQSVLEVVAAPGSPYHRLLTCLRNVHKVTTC
# Values joined by “and” are separate entries in the source; they are usually repeats but may differ in a detail not shown here. Equal entries are not always repeated. The list shows a part of the results. Where no call is shown, the source marks the result inconclusive.
# Molecular target: Huntingtin (Homo sapiens) (UniProt P42858)
# Assay: inhibitors of mutant Htt aggregation in vitro, dose response, QA1 (AID 1584)
# Conditions: in vitro mutant huntingtin aggregation assay; at 100 µM
row,Structure (SMILES),aggregation ratio
1,Nc1ccc(C(=O)NCC(=O)O)cc1,0.794
2,CC/C(=C(/CC)c1ccc(O)cc1)c1ccc(O)cc1,0.552
3,CC[N+](C)(C)c1cccc(O)c1,0.958
4,CN1CCN(C(c2ccccc2)c2ccc(Cl)cc2)CC1 (stereo not drawn),1.05
5,CC(=O)CC(c1ccccc1)c1c(O)c2ccccc2oc1=O (stereo not drawn),0.832
6,C1CCC(C(CC2CCCCN2)C2CCCCC2)CC1 (stereo not drawn),0.859
7,CCC(=O)O[C@@H](O[P@](=O)(CCCCc1ccccc1)CC(=O)N1C[C@H](C2CCCCC2)C[C@H]1C(=O)O)C(C)C,0.888
8,CC(C)NCC(O)c1ccc2ccccc2c1 (stereo not drawn),0.852
9,Fc1ccc(C(c2ccccc2)(c2ccccc2F)n2ccnc2)cc1 (stereo not drawn),0.89 and 0.937
10,CC1=NN(c2ccccc2)C(=O)C1,0.945
11,O=C(O)CN(CC(=O)O)Cc1cc2c(-c3ccccc3C(=O)O)c3cc(CN(CC(=O)O)CC(=O)O)c(=O)cc-3oc2cc1O,0.866
12,CC(C)(Oc1ccc(CCNC(=O)c2ccc(Cl)cc2)cc1)C(=O)O,0.87
13,Cc1cc(CC(=O)O)n(C)c1C(=O)c1ccc(Cl)cc1,1.12
14,O=C1NS(=O)(=O)c2ccccc21,0.957
15,CC(C(=O)O)c1ccc(-c2ccccc2)c(F)c1 (stereo not drawn),0.706
16,Cc1ccc(S(=O)(=O)NC(=O)NN2CCCCCC2)cc1,0.912
17,C[C@@H]1O[C@@H](OC[C@H]2O[C@@H](Oc3c(-c4ccc(O)c(O)c4)oc4cc(O)cc(O)c4c3=O)[C@H](O)[C@@H](O)[C@@H]2O)[C@H](O)[C@H](O)[C@H]1O,0.721
18,Cc1cc(O)cc(C)c1Cl,1.04
19,NC(=NCCCCCCN=C(N)/N=C(\N)Nc1ccc(Cl)cc1)/N=C(\N)Nc1ccc(Cl)cc1,0.756
20,CCCCOc1ccc(C(=O)CCN2CCCCC2)cc1,1.16

# Shown as tab-separated lines: part of the list above.
row	Structure (SMILES)	aggregation ratio
13	Cc1cc(CC(=O)O)n(C)c1C(=O)c1ccc(Cl)cc1	1.12
14	O=C1NS(=O)(=O)c2ccccc21	0.957
15	CC(C(=O)O)c1ccc(-c2ccccc2)c(F)c1 (stereo not drawn)	0.706
16	Cc1ccc(S(=O)(=O)NC(=O)NN2CCCCCC2)cc1	0.912

# The listing continues:

row,Structure (SMILES),aggregation ratio
1,NC(=O)c1cc[n+](CC2=C(C(=O)O)N3C(=O)C(NC(=O)C(c4ccccc4)S(=O)(=O)[O-])C3SC2)cc1 (stereo not drawn),0.459
2,CCN(CC)CCOC(=O)C1(C2CCCCC2)CCCCC1,1.11
3,CN/C(=C\[N+](=O)[O-])NCCSCc1ccc(CN(C)C)o1,1.01
4,CC(=O)N(O)CCCCCNC(=O)CCC(=O)N(O)CCCCCNC(=O)CCC(=O)N(O)CCCCCN,1.14
5,CC(=O)[C@H]1CCC2C3C[C@H](C)C4=CC(=O)CC[C@]4(C)C3[C@@H](O)C[C@@]21C (stereo partly drawn),0.942
6,CC[C@H]1OC(=O)[C@H](C)[C@@H](O[C@H]2C[C@@](C)(OC)[C@@H](O)[C@H](C)O2)[C@H](C)[C@@H](O[C@@H]2O[C@H](C)C[C@H](N(C)C)[C@H]2O)[C@](C)(O)C[C@@H](C)/C(=N\OCOCCOC)[C@H](C)[C@@H](O)[C@]1(C)O,0.892
7,CN(C)CCCN1c2ccccc2CCc2ccccc21,1.01
8,Cc1c(NC(=O)c2cccnc2)c(=O)n(-c2ccccc2)n1C,0.879
9,CCCOc1ccccc1-c1nc2n[nH]nc2c(=O)[nH]1,0.892
10,O=C(O)c1cc(=O)c2c(OCC(O)COc3cccc4oc(C(=O)O)cc(=O)c34)cccc2o1,1.1
11,Nc1ncnc2c1ncn2[C@@H]1O[C@H](CO)[C@@H](O)[C@@H]1O,1.14
12,Clc1ccccc1C(c1ccccc1)(c1ccccc1)n1ccnc1,0.864
13,CCn1cc(C(=O)O)c(=O)c2cnc(N3CCNCC3)nc21,1.09
14,COc1cc(OC)c2ccc(=O)oc2c1,0.81
15,COc1cc(NS(=O)(=O)c2ccc(N)cc2)nc(OC)n1,1
16,CN(C)CCCN1c2ccccc2Sc2ccccc21,0.927
17,NC(=O)N1c2ccccc2C=Cc2ccccc21,1.12
18,CC(=O)NC1SCCC1=O (stereo not drawn),0.773
19,CO[C@H]1C[C@H](O[C@H]2[C@H](C)[C@@H](OC3O[C@H](C)C[C@H](N(C)C)[C@H]3O)[C@@H](C)C[C@]3(CO3)C(=O)[C@H](C)[C@@H](O)[C@@H](C)[C@@H](C)OC(=O)[C@@H]2C)O[C@@H](C)[C@@H]1O (stereo partly drawn),1.09

# Another view of part of the listing above.
row	Structure (SMILES)	aggregation ratio
9	CCCOc1ccccc1-c1nc2n[nH]nc2c(=O)[nH]1	0.892
10	O=C(O)c1cc(=O)c2c(OCC(O)COc3cccc4oc(C(=O)O)cc(=O)c34)cccc2o1	1.1

# Test system: not listed separately
# Assay: PubChem AID 1586
# Conditions: yeast two-hybrid polyglutamine protein interaction, reporter readout
row,Structure (SMILES),normalized two-hybrid signal
1,Nc1ccc(C(=O)NCC(=O)O)cc1,58.6
2,CC/C(=C(/CC)c1ccc(O)cc1)c1ccc(O)cc1,146
3,CC[N+](C)(C)c1cccc(O)c1,420
4,CN1CCN(C(c2ccccc2)c2ccc(Cl)cc2)CC1 (stereo not drawn),189
5,CC(=O)CC(c1ccccc1)c1c(O)c2ccccc2oc1=O (stereo not drawn),114
6,C1CCC(C(CC2CCCCN2)C2CCCCC2)CC1 (stereo not drawn),158
7,CCC(=O)O[C@@H](O[P@](=O)(CCCCc1ccccc1)CC(=O)N1C[C@H](C2CCCCC2)C[C@H]1C(=O)O)C(C)C,33.6
8,CC(C)NCC(O)c1ccc2ccccc2c1 (stereo not drawn),76.5
9,Fc1ccc(C(c2ccccc2)(c2ccccc2F)n2ccnc2)cc1 (stereo not drawn),124 and 46.8
10,CC1=NN(c2ccccc2)C(=O)C1,64.4
11,O=C(O)CN(CC(=O)O)Cc1cc2c(-c3ccccc3C(=O)O)c3cc(CN(CC(=O)O)CC(=O)O)c(=O)cc-3oc2cc1O,49.8
12,CC(C)(Oc1ccc(CCNC(=O)c2ccc(Cl)cc2)cc1)C(=O)O,156
13,Cc1cc(CC(=O)O)n(C)c1C(=O)c1ccc(Cl)cc1,42.8
14,O=C1NS(=O)(=O)c2ccccc21,196
15,CC(C(=O)O)c1ccc(-c2ccccc2)c(F)c1 (stereo not drawn),40.3
16,Cc1ccc(S(=O)(=O)NC(=O)NN2CCCCCC2)cc1,187
17,C[C@@H]1O[C@@H](OC[C@H]2O[C@@H](Oc3c(-c4ccc(O)c(O)c4)oc4cc(O)cc(O)c4c3=O)[C@H](O)[C@@H](O)[C@@H]2O)[C@H](O)[C@H](O)[C@H]1O,76.5
18,Cc1cc(O)cc(C)c1Cl,209
19,NC(=NCCCCCCN=C(N)/N=C(\N)Nc1ccc(Cl)cc1)/N=C(\N)Nc1ccc(Cl)cc1,48.7
20,CCCCOc1ccc(C(=O)CCN2CCCCC2)cc1,431

row,Structure (SMILES),normalized two-hybrid signal
1,NC(=O)c1cc[n+](CC2=C(C(=O)O)N3C(=O)C(NC(=O)C(c4ccccc4)S(=O)(=O)[O-])C3SC2)cc1 (stereo not drawn),114
2,CCN(CC)CCOC(=O)C1(C2CCCCC2)CCCCC1,153
3,CN/C(=C\[N+](=O)[O-])NCCSCc1ccc(CN(C)C)o1,152
4,CC(=O)N(O)CCCCCNC(=O)CCC(=O)N(O)CCCCCNC(=O)CCC(=O)N(O)CCCCCN,134
5,CC(=O)[C@H]1CCC2C3C[C@H](C)C4=CC(=O)CC[C@]4(C)C3[C@@H](O)C[C@@]21C (stereo partly drawn),75
6,CC[C@H]1OC(=O)[C@H](C)[C@@H](O[C@H]2C[C@@](C)(OC)[C@@H](O)[C@H](C)O2)[C@H](C)[C@@H](O[C@@H]2O[C@H](C)C[C@H](N(C)C)[C@H]2O)[C@](C)(O)C[C@@H](C)/C(=N\OCOCCOC)[C@H](C)[C@@H](O)[C@]1(C)O,204
7,CN(C)CCCN1c2ccccc2CCc2ccccc21,169
8,Cc1c(NC(=O)c2cccnc2)c(=O)n(-c2ccccc2)n1C,246
9,CCCOc1ccccc1-c1nc2n[nH]nc2c(=O)[nH]1,340
10,O=C(O)c1cc(=O)c2c(OCC(O)COc3cccc4oc(C(=O)O)cc(=O)c34)cccc2o1,240
11,Nc1ncnc2c1ncn2[C@@H]1O[C@H](CO)[C@@H](O)[C@@H]1O,66.5
12,Clc1ccccc1C(c1ccccc1)(c1ccccc1)n1ccnc1,38.9
13,CCn1cc(C(=O)O)c(=O)c2cnc(N3CCNCC3)nc21,93.4
14,COc1cc(OC)c2ccc(=O)oc2c1,143
15,COc1cc(NS(=O)(=O)c2ccc(N)cc2)nc(OC)n1,156
16,CN(C)CCCN1c2ccccc2Sc2ccccc21,78.2
17,NC(=O)N1c2ccccc2C=Cc2ccccc21,155
18,CC(=O)NC1SCCC1=O (stereo not drawn),35.5
19,CO[C@H]1C[C@H](O[C@H]2[C@H](C)[C@@H](OC3O[C@H](C)C[C@H](N(C)C)[C@H]3O)[C@@H](C)C[C@]3(CO3)C(=O)[C@H](C)[C@@H](O)[C@@H](C)[C@@H](C)OC(=O)[C@@H]2C)O[C@@H](C)[C@@H]1O (stereo partly drawn),161
